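A panel of P. falciparum strains inside erythrocytes is exposed to compounds for three days, then a DNA-binding dye reports the amount of parasite DNA. Each compound was titrated across a series from about 0.000037 to 29 µM. The number is the fitted AC50, the concentration giving a half-maximal change in signal; a lower value means higher potency, whether the curve shows a decrease or an increase. Calls follow the curve class and fit quality: every row here is inconclusive, covering signal-raising curves and weak, poorly fitted, partial or highest-dose-only inhibition curves.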

Values are in µM. Every entry below has the call inconclusive. These entries are mostly ones the record files as inconclusive; other results of the assay are not listed here. A potency from a partial, single-point or poor curve is only a rough figure.

- CN1C[C@H](CNC(=O)OCc2ccccc2)C[C@@H]2c3cccc4c3c(cn4C)C[C@H]21 [CP305] | fitted potency 8.492 µM (inhibitor, partial curve)
- CN1C[C@H](CNC(=O)OCc2ccccc2)C[C@@H]2c3cccc4c3c(cn4C)C[C@H]21 [CP192] | fitted potency 6.746 µM (inhibitor, partial curve)
- CN1C[C@H](CNC(=O)OCc2ccccc2)C[C@@H]2c3cccc4c3c(cn4C)C[C@H]21 [3D7] | fitted potency 12.59 µM (inhibitor, partial curve)
- CN1C[C@H](CNC(=O)OCc2ccccc2)C[C@@H]2c3cccc4c3c(cn4C)C[C@H]21 [CP315] | fitted potency 19.01 µM (inhibitor, single point)
- CN1C[C@H](CNC(=O)OCc2ccccc2)C[C@@H]2c3cccc4c3c(cn4C)C[C@H]21 [CP201] | fitted potency 9.528 µM (inhibitor, single point)
- CN1C[C@H](CNC(=O)OCc2ccccc2)C[C@@H]2c3cccc4c3c(cn4C)C[C@H]21 [CP203] | fitted potency 8.492 µM (inhibitor, partial curve)
- O=C1[C@H]2CCCC[C@H]2C(=O)N1CCCCN1CCN(c2nsc3ccccc23)CC1 [TAB165] | fitted potency 11.22 µM (inhibitor, single point)
- O=C1[C@H]2CCCC[C@H]2C(=O)N1CCCCN1CCN(c2nsc3ccccc23)CC1 [GB4] | fitted potency 12 µM (inhibitor, partial curve, poor fit)
- O=C1[C@H]2CCCC[C@H]2C(=O)N1CCCCN1CCN(c2nsc3ccccc23)CC1 [7G8] | fitted potency 10 µM (inhibitor, single point)
- O=C1[C@H]2CCCC[C@H]2C(=O)N1CCCCN1CCN(c2nsc3ccccc23)CC1 [ICS] | fitted potency 11.22 µM (inhibitor, single point)
- O=C1[C@H]2CCCC[C@H]2C(=O)N1CCCCN1CCN(c2nsc3ccccc23)CC1 [C2A] | fitted potency 17.78 µM (inhibitor, single point)
- O=C1[C@H]2CCCC[C@H]2C(=O)N1CCCCN1CCN(c2nsc3ccccc23)CC1 [3D7] | fitted potency 17.78 µM (inhibitor, single point)
- O=C1[C@H]2CCCC[C@H]2C(=O)N1CCCCN1CCN(c2nsc3ccccc23)CC1 [CP297] | fitted potency 0.3793 µM (inhibitor, full curve, poor fit)
- O=C1[C@H]2CCCC[C@H]2C(=O)N1CCCCN1CCN(c2nsc3ccccc23)CC1 [CP237] | fitted potency 8.912 µM (inhibitor, single point)
- O=C1[C@H]2CCCC[C@H]2C(=O)N1CCCCN1CCN(c2nsc3ccccc23)CC1 [CP191] | fitted potency 5.623 µM (inhibitor, partial curve)
- O=C1[C@H]2CCCC[C@H]2C(=O)N1CCCCN1CCN(c2nsc3ccccc23)CC1 [DIV17] | fitted potency 19.01 µM (inhibitor, single point)
- O=C1[C@H]2CCCC[C@H]2C(=O)N1CCCCN1CCN(c2nsc3ccccc23)CC1 [P93_24] | fitted potency 17.78 µM (inhibitor, single point)
- O=C1[C@H]2CCCC[C@H]2C(=O)N1CCCCN1CCN(c2nsc3ccccc23)CC1 [PC15] | fitted potency 3.981 µM (inhibitor, single point)
- O=C1[C@H]2CCCC[C@H]2C(=O)N1CCCCN1CCN(c2nsc3ccccc23)CC1 [DIV14] | fitted potency 19.01 µM (inhibitor, single point)
- O=C1[C@H]2CCCC[C@H]2C(=O)N1CCCCN1CCN(c2nsc3ccccc23)CC1 [PC26] | fitted potency 19.01 µM (inhibitor, partial curve, poor fit)
- O=C1[C@H]2CCCC[C@H]2C(=O)N1CCCCN1CCN(c2nsc3ccccc23)CC1 [HB3] | fitted potency 12.59 µM (inhibitor, single point)
- CNC(=O)Oc1ccc2c(c1)[C@]1(C)CCN(C)[C@@H]1N2C [PC26] | fitted potency 6.012 µM (inhibitor, partial curve)
- CNC(=O)Oc1ccc2c(c1)[C@]1(C)CCN(C)[C@@H]1N2C [CP266] | fitted potency 5.358 µM (inhibitor, partial curve, poor fit)

Repeated from the top, 2 entries:

Compound	tested on / at	fitted potency (µM)	remark
CN1C[C@H](CNC(=O)OCc2ccccc2)C[C@@H]2c3cccc4c3c(cn4C)C[C@H]21	CP305	8.492	inhibitor, partial curve
CN1C[C@H](CNC(=O)OCc2ccccc2)C[C@@H]2c3cccc4c3c(cn4C)C[C@H]21	CP192	6.746	inhibitor, partial curve

Source: PubChem BioAssay AID504749 (NCATS, 2011).